From PubChem BioAssay AID2685 (National Center for Advancing Translational Sciences (NCATS), 2010)
This is one part of the list. The main result of the screen is listed elsewhere. These columns were measured beside it and carry no call. Most of these compounds were active or inconclusive in the main read-out, so they are no random draw. The note in brackets gives the kind of curve behind each potency; many fits are weak.

Assay: qHTS Assay for Lipid Storage Modulators in Drosophila S3 Cells;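 for cell number change: cells counted by Cell Tracker Red CMTPX staining in the red channel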
Conditions: BODIPY lipid droplet fluorescence, 18-24 h; for cell number change: measured here: cell count max response, cells fed with added oleic acid
Summary of the method: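 Drosophila S3 cells got compounds at several concentrations plus oleic acid (400 uM solution). Laser-scanning cytometry with 488 nm excitation read lipid droplets at 500-530 nm and cells at 575-640 nm. Percent activity was relative to 20 uM Triacsin C.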

[1] = measured here: cell number channel AC50, cells fed with added oleic acid
[2] = measured here: lipid fluorescence (Fed channel) AC50, cells fed with added oleic acid

SMILES	cell number change	AC50 [1]	AC50 [2]
Cc1c(CC(=O)O)c(=O)oc2c(C)c3occ(-c4ccc(Br)cc4)c3cc12	34.7%	25.9 µM [rising, single point]	4.11 µM [falling, partial curve]
CS(=O)(=O)C1=NSC2=NC(=O)/C(=C\c3ccc(OC(=O)c4ccco4)c(Br)c3)C(=N)N21	–	–	6.51 µM [falling, single point]
CC(C)(C)c1ccc2c(c1)OC(C(=O)N/N=C\c1ccc(-c3cccc(C(=O)O)c3)o1)CO2 (configuration not stated)	-27.1%	0.731 µM [falling, full curve]	0.82 µM [falling, full curve]
